This passage reports binding results from publication PMC12153122.

Amino acid sequences for entries named in this document (tags omitted).
UniProt Q86U44: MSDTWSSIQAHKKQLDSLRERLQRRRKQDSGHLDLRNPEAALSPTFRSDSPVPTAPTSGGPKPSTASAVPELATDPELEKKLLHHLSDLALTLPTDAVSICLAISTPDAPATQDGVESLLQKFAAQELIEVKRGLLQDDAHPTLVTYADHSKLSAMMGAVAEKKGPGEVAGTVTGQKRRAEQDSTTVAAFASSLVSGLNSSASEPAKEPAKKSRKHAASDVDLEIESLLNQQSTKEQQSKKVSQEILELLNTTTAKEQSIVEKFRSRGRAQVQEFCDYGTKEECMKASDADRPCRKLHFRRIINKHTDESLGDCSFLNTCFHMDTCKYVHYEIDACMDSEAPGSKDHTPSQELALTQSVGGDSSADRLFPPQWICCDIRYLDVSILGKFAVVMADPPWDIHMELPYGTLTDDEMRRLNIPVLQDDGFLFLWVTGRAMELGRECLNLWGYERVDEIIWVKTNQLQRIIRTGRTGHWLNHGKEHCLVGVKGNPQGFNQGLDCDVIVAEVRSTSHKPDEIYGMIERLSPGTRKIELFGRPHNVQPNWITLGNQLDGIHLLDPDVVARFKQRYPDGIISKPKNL

Results are given in words; binding and its absence hold for the method and conditions named. In cells and extracts the contact can be indirect. Some results given as binding are weak or reduced against the parent protein; the word gives no strength. Sequences can lack the tags named with a protein.

This experiment deals with Flag-METTL3 (UniProt Q86U44). Description: co-IP; HEK293T cells transfected with Flag-METTL3 and HA-OGT, HA-OGT-K908A or truncated HA-OGT; lysates immunoprecipitated with anti-Flag antibody; Western blot with anti-HA and anti-Flag. (In general: In western blotting, separated proteins are transferred to a membrane and probed.)

B1: HA-OGT (enzyme, UniProt O15294 1-1046)
chain: MASSVGNVADSTEPTKRMLSFQGLAELAHREYQAGDFEAAERHCMQLWRQEPDNTGVLLLLSSIHFQCRRLDRSAHFSTLAIKQNPLLAEAYSNLGNVYKERGQLQEAIEHYRHALRLKPDFIDGYINLAAALVAAGDMEGAVQAYVSALQYNPDLYCVRSDLGNLLKALGRLEEAKACYLKAIETQPNFAVAWSNLGCVFNAQGEIWLAIHHFEKAVTLDPNFLDAYINLGNVLKEARIFDRAVAAYLRALSLSPNHAVVHGNLACVYYEQGLIDLAIDTYRRAIELQPHFPDAYCNLANALKEKGSVAEAEDCYNTALRLCPTHADSLNNLANIKREQGNIEEAVRLYRKALEVFPEFAAAHSNLASVLQQQGKLQEALMHYKEAIRISPTFADAYSNMGNTLKEMQDVQGALQCYTRAIQINPAFADAHSNLASIHKDSGNIPEAIASYRTALKLKPDFPDAYCNLAHCLQIVCDWTDYDERMKKLVSIVADQLEKNRLPSVHPHHSMLYPLSHGFRKAIAERHGNLCLDKINVLHKPPYEHPKDLKLSDGRLRVGYVSSDFGNHPTSHLMQSIPGMHNPDKFEVFCYALSPDDGTNFRVKVMAEANHFIDLSQIPCNGKAADRIHQDGIHILVNMNGYTKGARNELFALRPAPIQAMWLGYPGTSGALFMDYIITDQETSPAEVAEQYSEKLAYMPHTFFIGDHANMFPHLKKKAVIDFKSNGHIYDNRIVLNGIDLKAFLDSLPDVKIVKMKCPDGGDNADSSNTALNMPVIPMNTIAEAVIEMINRGQIQITINGFSISNGLATTQINNKAATGEEVPRTIIVTTRSQYGLPEDAIVYCNFNQLYKIDPSTLQMWANILKRVPNSVLWLLRFPAVGEPNIQQYAQNMGLPQNRIIFSPVAPKEEHVRRGQLADVCLDTPLCNGHTTGMDVLWAGTPMVTMPGETLASRVAASQLTCLGCLELIAKNRQEYEDIAVKLGTDLEYLKKVRGKVWKQRISSPLFNTKQYTMELERLYLQMWEHYAAGNKPDHMIKPVEVTESA
With B1, the binding entry is given as “binds”.

B2: HA-OGT-K908A (enzyme, UniProt O15294 1-1046)
chain: MASSVGNVADSTEPTKRMLSFQGLAELAHREYQAGDFEAAERHCMQLWRQEPDNTGVLLLLSSIHFQCRRLDRSAHFSTLAIKQNPLLAEAYSNLGNVYKERGQLQEAIEHYRHALRLKPDFIDGYINLAAALVAAGDMEGAVQAYVSALQYNPDLYCVRSDLGNLLKALGRLEEAKACYLKAIETQPNFAVAWSNLGCVFNAQGEIWLAIHHFEKAVTLDPNFLDAYINLGNVLKEARIFDRAVAAYLRALSLSPNHAVVHGNLACVYYEQGLIDLAIDTYRRAIELQPHFPDAYCNLANALKEKGSVAEAEDCYNTALRLCPTHADSLNNLANIKREQGNIEEAVRLYRKALEVFPEFAAAHSNLASVLQQQGKLQEALMHYKEAIRISPTFADAYSNMGNTLKEMQDVQGALQCYTRAIQINPAFADAHSNLASIHKDSGNIPEAIASYRTALKLKPDFPDAYCNLAHCLQIVCDWTDYDERMKKLVSIVADQLEKNRLPSVHPHHSMLYPLSHGFRKAIAERHGNLCLDKINVLHKPPYEHPKDLKLSDGRLRVGYVSSDFGNHPTSHLMQSIPGMHNPDKFEVFCYALSPDDGTNFRVKVMAEANHFIDLSQIPCNGKAADRIHQDGIHILVNMNGYTKGARNELFALRPAPIQAMWLGYPGTSGALFMDYIITDQETSPAEVAEQYSEKLAYMPHTFFIGDHANMFPHLKKKAVIDFKSNGHIYDNRIVLNGIDLKAFLDSLPDVKIVKMKCPDGGDNADSSNTALNMPVIPMNTIAEAVIEMINRGQIQITINGFSISNGLATTQINNKAATGEEVPRTIIVTTRSQYGLPEDAIVYCNFNQLYKIDPSTLQMWANILKRVPNSVLWLLRFPAVGEPNIQQYAQNMGLPQNRIIFSPVAPAEEHVRRGQLADVCLDTPLCNGHTTGMDVLWAGTPMVTMPGETLASRVAASQLTCLGCLELIAKNRQEYEDIAVKLGTDLEYLKKVRGKVWKQRISSPLFNTKQYTMELERLYLQMWEHYAAGNKPDHMIKPVEVTESA
In the case of B2, the binding entry is on record as “binds”.
